Data published in PMC7596997.
Substitutions are numbered along the chain they refer to. No constants are given. Whether binding was seen depends on the method and setting. In cells and extracts the contact can be indirect. Some binding calls cover weakened binding; strength is not graded here. Where a sequence is shown, tags or fusion partners need not be part of it.

Protein sequences, listed by entry. Tags and fused reporters are not part of them. Lines headed by an entry give the natural chain unless they say otherwise; changes in a name come on top.
UniProt P02723: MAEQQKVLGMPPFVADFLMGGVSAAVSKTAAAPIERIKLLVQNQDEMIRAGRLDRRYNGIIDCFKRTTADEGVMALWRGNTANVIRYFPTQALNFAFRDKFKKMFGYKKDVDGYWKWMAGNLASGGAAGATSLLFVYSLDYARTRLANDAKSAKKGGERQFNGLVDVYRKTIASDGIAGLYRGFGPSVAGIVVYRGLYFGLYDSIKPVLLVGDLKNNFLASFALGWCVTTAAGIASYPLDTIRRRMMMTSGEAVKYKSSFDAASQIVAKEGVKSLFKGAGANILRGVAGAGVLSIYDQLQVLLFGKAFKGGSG

Columns and labels:
Assay in all cases: pull-down; purified His-Tom70cd (50 pmol per 100 μl) pre-bound to Ni-NTA beads, incubated 40 min at 30 °C with typically 7% (v/v) reticulocyte lysate containing the [35S]-labelled protein; 10 mM MOPS/KOH, 20 mM imidazole, 150 mM KCl, 1% BSA, pH 7.2; eluted with 1 M imidazole, SDS-PAGE, phosphorimager; in some samples the bead-bound Tom70cd was pretreated with NEM and washed before the lysate was added; only the target purified
[1] = target: T1, cytosolic domain of yeast Tom70 (His-Tom70_(38–617)) (yeast (Saccharomyces cerevisiae)) (UniProt P07213)
T1 sequence: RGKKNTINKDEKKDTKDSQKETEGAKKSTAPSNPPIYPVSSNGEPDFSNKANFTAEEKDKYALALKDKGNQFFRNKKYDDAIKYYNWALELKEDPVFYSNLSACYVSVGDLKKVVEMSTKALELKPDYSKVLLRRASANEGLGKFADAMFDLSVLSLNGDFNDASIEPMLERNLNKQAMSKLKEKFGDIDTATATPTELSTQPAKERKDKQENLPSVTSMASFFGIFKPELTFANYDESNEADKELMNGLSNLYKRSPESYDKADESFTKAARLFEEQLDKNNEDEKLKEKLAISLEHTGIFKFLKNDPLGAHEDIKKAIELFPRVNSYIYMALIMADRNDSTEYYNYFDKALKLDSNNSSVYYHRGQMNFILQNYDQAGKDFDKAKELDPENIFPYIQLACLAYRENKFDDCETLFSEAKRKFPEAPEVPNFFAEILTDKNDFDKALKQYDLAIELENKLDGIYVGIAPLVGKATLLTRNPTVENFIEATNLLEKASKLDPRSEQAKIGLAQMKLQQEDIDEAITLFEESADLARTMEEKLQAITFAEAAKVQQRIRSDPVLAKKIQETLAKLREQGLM

[2] = target: T2, Tom70cd C439A (yeast (Saccharomyces cerevisiae)) (UniProt P07213)
T2 sequence: T1 sequence with C402A

[3] = target: T3, Tom70cd C450A pretreated with NEM (yeast (Saccharomyces cerevisiae)) (UniProt P07213)
T3 sequence (chain, treated with 2 mM N-ethylmaleimide): T1 sequence with C413A

[4] = target: T4, Tom70cd C141A pretreated with NEM (yeast (Saccharomyces cerevisiae)) (UniProt P07213)
T4 sequence (chain, treated with 2 mM N-ethylmaleimide): T1 sequence with C104A

[5] = target: T5, Tom70cd C450A (yeast (Saccharomyces cerevisiae)) (UniProt P07213)
T5 sequence: T1 sequence with C413A

[6] = target: T6, Tom70cd C439A pretreated with NEM (yeast (Saccharomyces cerevisiae)) (UniProt P07213)
T6 sequence (chain, treated with 2 mM N-ethylmaleimide): T1 sequence with C402A

[7] = target: T7, Tom70cd C141A (yeast (Saccharomyces cerevisiae)) (UniProt P07213)
T7 sequence: T1 sequence with C104A

[8] = target: T8, Tom70_(ΔGlu) (E473Q/E542Q/E577Q), cytosolic domain (yeast (Saccharomyces cerevisiae)) (UniProt P07213)
T8 sequence: T1 sequence with E436Q, E505Q, E540Q

With “ML3-TMD6-DHFR (C-terminal part of AAC module III including the matrix loop and helix 6, residues 238–313, fused to DHFR) (from UniProt P02723 238-313) (domain or fragment)” the binding [1] was “binds”.

With “AAC module I fused to DHFR (from UniProt P02723 10-100) (domain or fragment)” the binding [1] was “binds”.

In the case of “AAC module II fused to DHFR (from UniProt P02723 117-206) (domain or fragment)”, the binding [1] is reported as “binds”.

For “TMD6-DHFR (AAC helix 6, residues 277–313, fused to DHFR) (from UniProt P02723 277-313) (domain or fragment)”, the binding [1] was “binds”.

“ML3-DHFR (matrix loop of AAC module III, residues 238–277, fused to DHFR) (from UniProt P02723 238-277) (domain or fragment)” was tested, and the binding [1] was “no binding (tested: < 1%)”.

In the case of “AAC module III fused to DHFR (from UniProt P02723 216-305) (domain or fragment)”, the binding [1] is reported as “binds”.

With “ADP/ATP carrier (AAC) of Neurospora crassa, wild type (from UniProt P02723 1-313)” the binding [2] was “binds”, the binding [3] was “binds” and the binding [4] was “binds”. The binding [5] was “binds”, the binding [6] was “binds” and the binding [7] was “binds”. The binding [8] was “binds”.
